These are yes or no findings as the source states them, for the method shown. For some of these results: Binding seen in cells or lysates may run through a third protein. Some binding calls cover weakened binding; strength is not graded here.
Key:
[1] = molecular target: TNFR2, endogenous in HUVECs (human (endogenous in HUVEC)) (UniProt P20333); experiment: co-IP; HUVEC lysates (HEPES 50 mM, NaCl 125 mM, CHAPS 0.5%, EDTA 1 mM, DTT, PMSF) incubated overnight with anti-TNFR1 or anti-TNFR2 antibodies on Protein G Dynabeads; blot for NRP1; cells with or without TNFα (5 ng/mL, 15 min)
[2] = molecular target: GPI-anchored ectodomain of TNFR1 on HEK293 cells (UniProt P19438); experiment: binding of a Gaussia luciferase (GpL) fusion protein to cells; HEK293 cells with TNFR1-GPI or TNFR2-GPI; 100 ng/mL GpL fusion protein in the absence and presence of 200 ng/mL TNF; total binding, 2 h at 37°C
[3] = molecular target: GPI-anchored ectodomain of TNFR2 on HEK293 cells (UniProt P20333); experiment: as above
[4] = molecular target: GPI-anchored ectodomain of TNFR1 on HEK293 cells (UniProt P19438); experiment: binding of a Gaussia luciferase (GpL) fusion protein to cells; HEK293 cells transiently expressing GPI-anchored TNFR1 or TNFR2 ectodomain; empty-vector cells for unspecific binding; GpL fusion proteins 2 h at 37°C in RPMI, 10% FCS
[5] = molecular target: GPI-anchored ectodomain of TNFR2 on HEK293 cells (UniProt P20333); experiment: as above
[6] = molecular target: TNFR2-Fc (UniProt P20333); experiment: binding of a Gaussia luciferase (GpL) fusion protein to coated plates; TNFR2-Fc (2 μg/mL) immobilised on black 96-well plastic plates; TRAILR1-Fc wells for unspecific binding; GpL fusion proteins 2 h at 37°C; 10 washes with ice-cold PBS

Protein sequences, listed by entry. Tags and fused reporters are not part of them. Lines headed by an entry give the natural chain unless they say otherwise; changes in a name come on top. Residues count along the entry.
UniProt P20333: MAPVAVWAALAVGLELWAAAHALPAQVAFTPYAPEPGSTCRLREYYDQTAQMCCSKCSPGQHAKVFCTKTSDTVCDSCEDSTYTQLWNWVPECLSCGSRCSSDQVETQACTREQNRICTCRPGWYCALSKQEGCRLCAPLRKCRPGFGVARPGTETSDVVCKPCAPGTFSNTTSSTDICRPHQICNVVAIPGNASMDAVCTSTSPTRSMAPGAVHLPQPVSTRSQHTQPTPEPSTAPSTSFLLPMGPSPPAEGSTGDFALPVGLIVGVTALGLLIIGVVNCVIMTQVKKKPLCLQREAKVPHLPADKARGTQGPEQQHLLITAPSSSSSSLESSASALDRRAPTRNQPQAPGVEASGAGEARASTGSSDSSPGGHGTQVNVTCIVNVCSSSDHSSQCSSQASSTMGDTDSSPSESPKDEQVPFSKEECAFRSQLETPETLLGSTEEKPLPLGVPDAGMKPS
TNFR2, endogenous in HUVECs (human (endogenous in HUVEC)): residues 23-461 of P20333
TNFR2-Fc: residues 23-257 of P20333
UniProt P19438, residues 30-211: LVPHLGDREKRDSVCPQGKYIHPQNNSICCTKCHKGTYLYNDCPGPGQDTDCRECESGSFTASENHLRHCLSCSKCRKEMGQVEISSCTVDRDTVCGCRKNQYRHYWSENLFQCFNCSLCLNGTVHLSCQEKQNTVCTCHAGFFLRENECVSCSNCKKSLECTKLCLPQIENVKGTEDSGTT
UniProt O14786: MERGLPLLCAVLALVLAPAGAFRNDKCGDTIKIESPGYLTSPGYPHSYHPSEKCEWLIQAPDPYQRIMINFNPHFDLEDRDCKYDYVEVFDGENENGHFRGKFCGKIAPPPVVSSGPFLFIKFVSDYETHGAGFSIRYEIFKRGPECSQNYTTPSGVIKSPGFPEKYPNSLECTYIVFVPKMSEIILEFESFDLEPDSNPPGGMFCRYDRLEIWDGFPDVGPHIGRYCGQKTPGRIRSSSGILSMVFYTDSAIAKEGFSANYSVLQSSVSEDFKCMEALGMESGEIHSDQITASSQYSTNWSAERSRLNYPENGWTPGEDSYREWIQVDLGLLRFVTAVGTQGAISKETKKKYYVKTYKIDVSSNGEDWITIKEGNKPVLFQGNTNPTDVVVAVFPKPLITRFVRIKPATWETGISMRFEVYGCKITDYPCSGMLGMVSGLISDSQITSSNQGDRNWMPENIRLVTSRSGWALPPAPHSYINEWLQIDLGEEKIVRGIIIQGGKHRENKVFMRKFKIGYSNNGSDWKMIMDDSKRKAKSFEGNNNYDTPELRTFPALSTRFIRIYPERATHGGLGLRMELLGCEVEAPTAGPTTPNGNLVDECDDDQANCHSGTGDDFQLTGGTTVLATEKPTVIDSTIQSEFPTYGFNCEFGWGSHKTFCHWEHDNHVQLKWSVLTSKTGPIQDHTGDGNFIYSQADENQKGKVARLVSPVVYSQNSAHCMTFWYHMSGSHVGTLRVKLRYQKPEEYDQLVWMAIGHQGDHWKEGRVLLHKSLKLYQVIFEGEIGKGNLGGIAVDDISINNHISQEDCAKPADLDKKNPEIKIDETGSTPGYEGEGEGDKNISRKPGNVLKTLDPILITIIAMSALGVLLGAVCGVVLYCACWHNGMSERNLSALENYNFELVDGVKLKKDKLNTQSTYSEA

Substance | binding [1] | binding [2] | binding [3] | binding [4] | binding [5] | binding [6]
NRP1 expressed from a retrovirus in HUVECs (from UniProt O14786 22-923) | binds |  |  |  |  | 
NRP1-Fc-GpL fusion protein (from UniProt O14786 22-856) (Fc fusion) |  | no binding (tested: 100 ng/mL) | no binding (tested: 100 ng/mL) | no binding | no binding | no binding
neuropilin-1 (NRP1), endogenous in HUVECs (from UniProt O14786 22-923) | binds |  |  |  |  | 

Source: PMC11236538
